Measured values published in PubChem BioAssay AID2685 (National Center for Advancing Translational Sciences (NCATS), 2010).
Some of the results follow. Shown are side measurements of this screen, not its main read-out; they come without a call. The list favours compounds with an active or inconclusive main result. The note in brackets gives the kind of curve behind each potency; many fits are weak.

Assay: qHTS Assay for Lipid Storage Modulators in Drosophila S3 Cells;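 as to cell number change: cells counted by Cell Tracker Red CMTPX staining in the red channel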
Details: BODIPY lipid droplet fluorescence, 18-24 h; for cell number change: measured here: cell count max response, cells fed with added oleic acid
Method in brief: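 Drosophila S3 cells loaded with oleic acid (400 uM, as added) and compounds at several concentrations; lipid droplets imaged by 488-nm laser-scanning cytometry, 500–530 nm intensity and object ratio to cell channel. Percent activity normalized to 20 uM Triacsin C.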

[1] = measured here: cell number channel AC50, cells fed with added oleic acid
[2] = measured here: lipid fluorescence (Fed channel) AC50, cells fed with added oleic acid

SMILES	cell number change	AC50 [1]	AC50 [2]
CCNC(=O)Nc1ccc(S(=O)(=O)Nc2cnc(C)nc2C)cc1	26.9%	–	–
CC(C)NC(=O)Cn1c(SCC(=O)N2CCc3ccccc3C2)nc2ccccc21	3.61%	1.3 µM [rising, partial curve, poor fit]	2.31 µM [rising, full curve]
COc1ccc(C)cc1NC(=O)C1CC(=O)OC12CCCCC2 (configuration not stated)	33.9%	16.4 µM [rising, partial curve, poor fit]	0.184 µM [falling, full curve, poor fit]
COc1ccc(/C=C(/NC(=O)c2cccs2)C(=O)NCc2ccco2)cc1OC	-49%	0.58 µM [falling, full curve]	0.517 µM [falling, full curve, poor fit]
CCOC(=O)c1cccc(NC(=O)CSc2nnc(-c3ccncc3)n2CCCOC)c1	-6.31%	–	2.06 µM [rising, partial curve]
CC(=O)Nc1cccc(NC(=O)C2CCN(C(=O)c3ccco3)CC2)c1	11.8%	–	0.13 µM [falling, partial curve, poor fit]
CCOC(=O)C1=C(c2ccccc2)NC(SCC(=O)Nc2ccc(C)cc2)=C(C#N)C1c1ccco1 (configuration not stated)	59.2%	32.6 µM [rising, single point]	32.6 µM [rising, single point]
CC(=O)Nc1nc(CC(C)C)cc(-c2ccco2)c1C#N	-1.59%	–	7.31 µM [rising, partial curve, poor fit]
CCn1c(SCC(=O)Nc2ccc3c(c2)OCO3)nc2c1c(=O)n(C)c(=O)n2C	30.5%	0.13 µM [rising, full curve]	0.411 µM [rising, full curve]
O=C(Nc1cc(Cl)ccc1-n1cncn1)C1CC1	16.6%	–	–
C/C(=N/Oc1nc(C)cc(C)n1)c1ccc(Br)cc1	–	1.3 µM [rising, partial curve]	1.46 µM [rising, partial curve]
COC(=O)C(NC(=O)c1ccccc1C(=O)O)c1ccc2ccccc2c1 (configuration not stated)	2.49%	–	29.1 µM [falling, single point]
CCc1sc(C(=O)NCCCn2ccnc2)cc1Br	-6.74%	–	–
COc1ccc(C)cc1NC(=O)NC1CCCCCCC1	-2.31%	–	–
COc1ccc(-c2cc(C3CCN(Cc4cccc(C(F)(F)F)c4)CC3)[nH]n2)cc1	-75.6%	–	–
CCc1nc(SCc2cccnc2)c2c(=O)n(C)c(=O)n(C)c2n1	132%	2.91 µM [rising, partial curve]	3.66 µM [rising, partial curve]
Cc1ccc(C)c(CN2CCSCC2)c1	–	6.51 µM [falling, single point]	–
O=C(CCN1CCCCCC1)Nc1cccc(F)c1	–	–	16.4 µM [falling, partial curve]
Cc1ccc(NC(=O)C2CCCN2C(=O)NC2CCCCC2)cc1C (configuration not stated)	-5.93%	–	–
Cc1onc(-c2ccccc2)c1C(=O)N/N=C/C(Br)=C/c1ccccc1	35.9%	14.6 µM [rising, single point]	–
Cc1noc(C)c1COC(=O)/C=C/c1ccccc1Cl	-27.1%	–	29.1 µM [falling, single point]

SMILES	cell number change	AC50 [1]	AC50 [2]
C=CCC1NS(=O)(=O)OCC1NC(=O)OCC(Cl)(Cl)Cl (configuration not stated)	23.6%	–	–
CCN(CC)CCCN1CC(=O)N2[C@@H](Cc3c([nH]c4ccccc34)C2(C)C)C1=O	8.5%	–	6.51 µM [rising, single point]
C[C@H](NC(=O)c1nc[nH]c1C(=O)NC1CCN(C(=O)OC(C)(C)C)CC1)C(=O)OCc1ccccc1	-31.3%	29.1 µM [falling, single point]	–
CCC(=O)Nc1ccccc1C(=O)OCC(=O)c1cccc2ccccc12	-8.07%	–	–
Cc1nnc(SCc2cc(=O)[nH]c(/N=C(\N)Nc3ccccc3)n2)s1	8.54%	2.06 µM [rising, partial curve, poor fit]	20.6 µM [rising, single point]
O=C(COc1ccccc1F)OCC(=O)N1CCc2ccccc21	-19%	3.26 µM [falling, single point]	–
CN1CCN(CCC(=O)Nc2ccc(C3CCCC3)cc2)CC1	-6.43%	2.06 µM [rising, partial curve, poor fit]	–
O=C(NCCCN1CCOCC1)C(=O)NCc1ccco1	17.3%	–	0.651 µM [falling, single point]
COc1ccc(/C=C/C(=O)OCC(=O)c2c(N)n(C)c(=O)n(C)c2=O)c(OC)c1	-11.1%	–	–
Fc1ccccc1NC(=S)NCc1ccccc1	8.78%	–	29.1 µM [falling, single point]
O=Nc1c(-c2c(O)[nH]c3cc(Br)ccc23)[nH]c2ccccc12	-33.9%	2.91 µM [falling, full curve]	25.9 µM [falling, single point]
O=c1c2ccccc2nc(CSc2nnnn2-c2ccccc2)n1-c1cccc(C(F)(F)F)c1	68.8%	0.461 µM [rising, full curve]	0.00517 µM [rising, full curve, poor fit]
Brc1cccc(-c2cnc3n2CCCCC3)c1	-12.4%	–	–
COc1ccc(CCNC(=O)c2nnc(Cc3ccc(Cl)cc3)o2)cc1OC	-12.3%	–	29.1 µM [rising, single point]
Nn1c(COc2cccc(Br)c2)nnc1SCC(=O)N1CCc2ccccc2C1	-6.15%	–	0.731 µM [rising, full curve, poor fit]
Cc1ccc(N(C(=O)CS(=O)CC(=O)Nc2ccc(F)cc2)C(C)C(=O)NC(C)(C)C)cc1 (configuration not stated)	25.7%	6.51 µM [rising, single point]	–
COc1ccc(NC(=O)c2sc3nc(C)cc(C)c3c2N)cc1	-19.2%	–	14.6 µM [falling, partial curve, poor fit]
COC(=O)c1c(NC(=O)C2CC=CCC2C(=O)O)sc(C(N)=O)c1C (configuration not stated)	-0.165%	–	0.0103 µM [rising, full curve, poor fit]
CSc1nc2c(c(=O)[nH]1)C(c1ccc(Cl)cc1)CC(=O)N2 (configuration not stated)	-22.8%	–	–
Cc1ccc(C(=O)NCC(=O)OCC(=O)Nc2ccc(Cl)cn2)cc1	–	–	3.26 µM [falling, full curve]
COC(=O)c1cc(NC(=O)c2cccnc2)ccc1N1CCOCC1	28.8%	–	–

SMILES	cell number change	AC50 [1]	AC50 [2]
COC(=O)c1ccc(C(=O)NC2CCCc3c2cnn3-c2cc(F)cc(F)c2)nc1 (configuration not stated)	-70.9%	0.326 µM [falling, full curve]	0.231 µM [falling, full curve]
CCCCCCCCOC(=O)/C=C/c1c(C)[nH]c(=O)[nH]c1=O	-38.4%	0.116 µM [falling, full curve, poor fit]	0.116 µM [falling, full curve, poor fit]
O=C(CSC(=S)N1CCOCC1)N1N=CCC1c1ccccc1 (configuration not stated)	-40.7%	3.26 µM [falling, full curve]	3.66 µM [falling, full curve]
Cn1cc(CN2CCCC(C(=O)Nc3ccc(-c4cccc(F)c4)cc3)C2)cn1 (configuration not stated)	–	–	6.51 µM [rising, single point]
COC(=O)c1[nH]c2cccc(OC)c2c1NC(=O)C(C)N1CCC(C)CC1 (configuration not stated)	20.2%	0.461 µM [falling, single point]	–
Clc1ccc(CSc2nc3ccncc3[nH]2)cc1	-6.98%	–	–
CC(C)NC(=O)c1ccccc1-c1ccccc1	-16.9%	0.058 µM [falling, full curve, poor fit]	3.66 µM [falling, partial curve, poor fit]
Cc1ccc(S(=O)(=O)N2CC(C(=O)O)=CC[C@H]2c2ccc(Cl)cc2)cc1	16.2%	0.13 µM [rising, full curve, poor fit]	10.3 µM [falling, partial curve, poor fit]
COc1ccccc1C1(O)CCN(C(=O)c2cccs2)CC1	-6.59%	–	–
Cc1nc(C)c(C(=O)NCc2ccc(Cl)cc2)o1	-25.5%	–	–
Cc1cc2nsnc2c(S(=O)(=O)N2CCN(C)CC2)c1C	2.86%	1.3 µM [rising, full curve]	–
Cc1noc(C)c1C(=O)NCc1ccccc1F	18.3%	–	–
CCOCc1cnc(C)nc1NCC(=O)c1c(C)[nH]c2ccccc12	34.9%	25.9 µM [rising, single point]	25.9 µM [rising, single point]
CCn1c(=O)c2cc(C(=O)N3CCN(C(=O)c4ccco4)CC3)sc2c2ccccc21	-49.4%	23.1 µM [falling, partial curve]	32.6 µM [falling, single point]
COC(=O)c1ccc(-c2nc3ccccc3o2)cc1	7.56%	–	–
Cc1ccc(CNc2ncnc3cc(Cl)ccc23)cc1	-23%	–	32.6 µM [falling, single point]
COc1ccc(C(=O)NNC(=S)Nc2ccccc2)cc1	44.3%	–	–
CC(C)C(NC(=O)c1c(F)cccc1F)C(=O)N1CCN(c2ccccc2F)CC1 (configuration not stated)	10.3%	–	–
O=C(Nc1ccccc1Cl)Nc1ccnn1C1CCN(C(=O)CCN2CCCO2)CC1	–	–	2.91 µM [falling, single point]
CC(=O)Nc1ccc(N(CC(=O)NC2CCCCC2)C(=O)Cn2nnc(-c3ccccc3)n2)cc1	17.4%	–	6.51 µM [rising, single point]
CC(C)c1ccc(O)c(NC(=O)c2cncc(Br)c2)c1	–	0.58 µM [rising, single point]	–

Two records picked at random from the list so far:
SMILES	cell number change	AC50 [1]	AC50 [2]
CC(C)C(NC(=O)c1c(F)cccc1F)C(=O)N1CCN(c2ccccc2F)CC1 (configuration not stated)	10.3%	–	–
Cc1ccc(CNc2ncnc3cc(Cl)ccc23)cc1	-23%	–	32.6 µM [falling, single point]

Entries of single compounds, looked up by structure. Values in the order: cell number change	AC50 [1]	AC50 [2]
`COC(=O)c1ccc(-c2nc3ccccc3o2)cc1` reads 7.56%	–	–
`Clc1ccc(CSc2nc3ccncc3[nH]2)cc1` reads -6.98%	–	–
